From the supplement of paper PMC10849652
Some of the results follow.

The chains behind the UniProt entries cited, without tags or fusion partners. Where a name states a change or a piece, a line headed by the entry shows the natural chain unless it says otherwise.
UniProt P46976: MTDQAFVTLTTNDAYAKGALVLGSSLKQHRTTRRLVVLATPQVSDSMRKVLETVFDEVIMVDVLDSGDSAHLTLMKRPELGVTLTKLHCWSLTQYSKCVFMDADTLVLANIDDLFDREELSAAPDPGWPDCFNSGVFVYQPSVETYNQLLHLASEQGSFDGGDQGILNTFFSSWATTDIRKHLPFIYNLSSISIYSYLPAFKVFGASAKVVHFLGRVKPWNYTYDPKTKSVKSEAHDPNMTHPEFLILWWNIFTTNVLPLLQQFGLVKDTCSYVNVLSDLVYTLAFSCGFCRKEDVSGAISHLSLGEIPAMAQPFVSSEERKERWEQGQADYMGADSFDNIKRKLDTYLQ
UniProt O94927: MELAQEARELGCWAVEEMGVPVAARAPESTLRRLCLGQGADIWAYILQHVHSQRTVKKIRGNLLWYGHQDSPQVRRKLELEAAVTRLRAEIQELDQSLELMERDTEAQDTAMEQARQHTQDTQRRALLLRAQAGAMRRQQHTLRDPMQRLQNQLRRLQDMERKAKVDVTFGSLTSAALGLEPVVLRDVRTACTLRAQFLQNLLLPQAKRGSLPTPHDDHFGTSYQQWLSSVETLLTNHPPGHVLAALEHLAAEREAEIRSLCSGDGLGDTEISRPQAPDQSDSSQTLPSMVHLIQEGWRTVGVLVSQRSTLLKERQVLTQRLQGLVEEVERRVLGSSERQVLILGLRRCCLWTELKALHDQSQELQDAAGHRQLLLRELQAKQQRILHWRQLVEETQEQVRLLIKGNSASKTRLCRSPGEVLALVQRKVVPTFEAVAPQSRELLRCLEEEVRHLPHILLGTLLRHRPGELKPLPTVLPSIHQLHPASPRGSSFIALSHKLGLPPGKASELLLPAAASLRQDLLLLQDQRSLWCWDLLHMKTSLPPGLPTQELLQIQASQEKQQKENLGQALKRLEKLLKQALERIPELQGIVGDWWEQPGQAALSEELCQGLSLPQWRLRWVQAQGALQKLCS
UniProt P15170, whole entry, looked up: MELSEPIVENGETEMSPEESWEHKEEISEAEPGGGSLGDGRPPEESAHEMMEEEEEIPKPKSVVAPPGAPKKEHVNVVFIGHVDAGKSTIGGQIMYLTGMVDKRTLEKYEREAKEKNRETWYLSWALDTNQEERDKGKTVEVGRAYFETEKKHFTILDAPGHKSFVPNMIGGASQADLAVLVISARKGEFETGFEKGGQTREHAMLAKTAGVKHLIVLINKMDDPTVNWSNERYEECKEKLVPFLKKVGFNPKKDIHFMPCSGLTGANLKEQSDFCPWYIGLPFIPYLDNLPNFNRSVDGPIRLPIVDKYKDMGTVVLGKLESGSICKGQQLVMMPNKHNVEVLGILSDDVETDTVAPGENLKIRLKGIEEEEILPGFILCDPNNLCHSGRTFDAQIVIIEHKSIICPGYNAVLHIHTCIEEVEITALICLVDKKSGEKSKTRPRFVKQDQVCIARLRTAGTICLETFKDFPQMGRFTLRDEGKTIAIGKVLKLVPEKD
UniProt P48637: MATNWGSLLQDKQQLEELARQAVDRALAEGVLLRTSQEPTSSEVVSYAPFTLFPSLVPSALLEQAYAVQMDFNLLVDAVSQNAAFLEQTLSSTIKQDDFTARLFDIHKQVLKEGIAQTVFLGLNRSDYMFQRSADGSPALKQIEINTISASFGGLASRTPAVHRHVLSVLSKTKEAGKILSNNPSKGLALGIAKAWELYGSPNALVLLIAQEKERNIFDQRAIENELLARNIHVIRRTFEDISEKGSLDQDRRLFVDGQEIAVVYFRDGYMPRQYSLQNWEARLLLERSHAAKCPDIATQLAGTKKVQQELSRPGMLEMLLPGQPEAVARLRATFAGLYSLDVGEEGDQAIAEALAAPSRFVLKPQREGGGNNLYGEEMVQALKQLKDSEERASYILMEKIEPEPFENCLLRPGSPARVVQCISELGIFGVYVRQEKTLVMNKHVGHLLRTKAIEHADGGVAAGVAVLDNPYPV
UniProt Q6PII5: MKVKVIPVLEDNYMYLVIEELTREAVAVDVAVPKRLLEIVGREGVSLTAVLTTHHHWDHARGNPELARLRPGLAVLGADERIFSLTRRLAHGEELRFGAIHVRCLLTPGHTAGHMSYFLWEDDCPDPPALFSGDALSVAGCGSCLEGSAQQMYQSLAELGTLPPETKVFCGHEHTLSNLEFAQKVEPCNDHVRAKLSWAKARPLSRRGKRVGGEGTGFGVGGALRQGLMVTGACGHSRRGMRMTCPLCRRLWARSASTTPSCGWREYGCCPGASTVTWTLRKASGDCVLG
UniProt Q9Y2Q3: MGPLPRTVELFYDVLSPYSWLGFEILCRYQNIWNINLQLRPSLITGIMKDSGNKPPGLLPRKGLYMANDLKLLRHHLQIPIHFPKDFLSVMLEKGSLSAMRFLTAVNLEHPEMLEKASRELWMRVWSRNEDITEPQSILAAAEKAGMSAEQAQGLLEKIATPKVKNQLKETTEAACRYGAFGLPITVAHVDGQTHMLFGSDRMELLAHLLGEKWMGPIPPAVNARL
UniProt Q8WW33: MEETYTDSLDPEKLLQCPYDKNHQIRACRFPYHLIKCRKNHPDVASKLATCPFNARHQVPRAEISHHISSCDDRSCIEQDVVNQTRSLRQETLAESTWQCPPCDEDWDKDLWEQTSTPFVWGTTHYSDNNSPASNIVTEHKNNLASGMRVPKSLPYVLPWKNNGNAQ
UniProt P51858: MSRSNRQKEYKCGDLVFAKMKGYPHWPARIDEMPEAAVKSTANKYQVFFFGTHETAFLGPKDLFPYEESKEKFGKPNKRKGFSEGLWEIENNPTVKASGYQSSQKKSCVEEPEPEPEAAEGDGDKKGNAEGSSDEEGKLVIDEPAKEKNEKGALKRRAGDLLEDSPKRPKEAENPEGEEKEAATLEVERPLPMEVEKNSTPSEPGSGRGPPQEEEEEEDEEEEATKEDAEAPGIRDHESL
UniProt P69892: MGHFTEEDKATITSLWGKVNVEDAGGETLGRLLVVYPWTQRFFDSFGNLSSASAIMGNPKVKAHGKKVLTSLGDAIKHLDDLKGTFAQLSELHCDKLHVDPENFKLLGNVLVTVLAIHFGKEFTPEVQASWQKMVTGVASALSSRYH
UniProt P46439: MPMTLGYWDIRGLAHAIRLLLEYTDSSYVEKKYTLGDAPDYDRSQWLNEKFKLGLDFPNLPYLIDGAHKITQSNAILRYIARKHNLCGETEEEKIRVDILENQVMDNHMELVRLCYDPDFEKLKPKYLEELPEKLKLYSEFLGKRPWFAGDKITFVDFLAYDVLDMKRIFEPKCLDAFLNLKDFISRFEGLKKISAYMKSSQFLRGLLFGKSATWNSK
UniProt P21266: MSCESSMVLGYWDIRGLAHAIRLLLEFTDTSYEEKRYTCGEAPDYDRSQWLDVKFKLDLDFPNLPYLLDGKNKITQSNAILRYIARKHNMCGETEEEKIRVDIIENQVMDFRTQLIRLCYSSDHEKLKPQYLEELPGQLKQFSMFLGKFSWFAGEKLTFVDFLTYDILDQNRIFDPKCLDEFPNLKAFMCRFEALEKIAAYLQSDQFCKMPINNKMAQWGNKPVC
UniProt P69891: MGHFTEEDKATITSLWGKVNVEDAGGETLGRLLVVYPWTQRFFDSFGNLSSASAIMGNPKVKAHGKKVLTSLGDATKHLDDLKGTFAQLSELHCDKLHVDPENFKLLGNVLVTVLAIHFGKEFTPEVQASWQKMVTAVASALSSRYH
UniProt P14317: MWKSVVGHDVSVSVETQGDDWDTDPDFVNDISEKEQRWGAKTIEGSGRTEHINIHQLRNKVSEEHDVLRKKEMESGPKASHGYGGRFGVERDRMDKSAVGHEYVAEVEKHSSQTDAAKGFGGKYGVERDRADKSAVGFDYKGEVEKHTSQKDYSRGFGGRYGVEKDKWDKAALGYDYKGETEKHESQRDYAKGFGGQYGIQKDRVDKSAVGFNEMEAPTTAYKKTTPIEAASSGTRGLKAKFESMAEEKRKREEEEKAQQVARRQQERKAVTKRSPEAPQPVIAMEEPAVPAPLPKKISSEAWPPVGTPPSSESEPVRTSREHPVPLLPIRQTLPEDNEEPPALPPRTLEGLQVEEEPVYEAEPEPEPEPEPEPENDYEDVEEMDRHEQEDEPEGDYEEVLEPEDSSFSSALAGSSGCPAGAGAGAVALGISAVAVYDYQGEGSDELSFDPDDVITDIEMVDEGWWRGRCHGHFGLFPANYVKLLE
UniProt P02100: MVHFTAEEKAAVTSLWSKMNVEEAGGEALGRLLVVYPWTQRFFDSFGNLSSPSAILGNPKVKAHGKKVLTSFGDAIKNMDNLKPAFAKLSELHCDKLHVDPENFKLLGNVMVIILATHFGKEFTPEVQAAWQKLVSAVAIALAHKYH
UniProt Q9BX10: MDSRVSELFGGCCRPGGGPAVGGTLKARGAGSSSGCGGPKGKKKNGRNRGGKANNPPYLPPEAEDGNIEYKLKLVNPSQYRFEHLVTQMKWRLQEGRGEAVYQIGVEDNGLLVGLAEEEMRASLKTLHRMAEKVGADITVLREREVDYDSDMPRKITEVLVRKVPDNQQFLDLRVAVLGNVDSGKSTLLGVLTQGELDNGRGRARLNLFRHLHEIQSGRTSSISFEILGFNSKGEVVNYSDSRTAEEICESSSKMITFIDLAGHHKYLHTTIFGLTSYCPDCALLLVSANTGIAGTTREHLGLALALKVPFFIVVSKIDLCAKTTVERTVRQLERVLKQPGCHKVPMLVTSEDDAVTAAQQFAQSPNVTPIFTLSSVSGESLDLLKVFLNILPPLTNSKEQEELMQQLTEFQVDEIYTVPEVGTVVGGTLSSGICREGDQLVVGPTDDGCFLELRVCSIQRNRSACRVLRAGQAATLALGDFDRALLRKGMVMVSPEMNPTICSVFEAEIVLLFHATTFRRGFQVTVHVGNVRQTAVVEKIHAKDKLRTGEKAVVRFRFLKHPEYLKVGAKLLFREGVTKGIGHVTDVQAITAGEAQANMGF
UniProt O15379: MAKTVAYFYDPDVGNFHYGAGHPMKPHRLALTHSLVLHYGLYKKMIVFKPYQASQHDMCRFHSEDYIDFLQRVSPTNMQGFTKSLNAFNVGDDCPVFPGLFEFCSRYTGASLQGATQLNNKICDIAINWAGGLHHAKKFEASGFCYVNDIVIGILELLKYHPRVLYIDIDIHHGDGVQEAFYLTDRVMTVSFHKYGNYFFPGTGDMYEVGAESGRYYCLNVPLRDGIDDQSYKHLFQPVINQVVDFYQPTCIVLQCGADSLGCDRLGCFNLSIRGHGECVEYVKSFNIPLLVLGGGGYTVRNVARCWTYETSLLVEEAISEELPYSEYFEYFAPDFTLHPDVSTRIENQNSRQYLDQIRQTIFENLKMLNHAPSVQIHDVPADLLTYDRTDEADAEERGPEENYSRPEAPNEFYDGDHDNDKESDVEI
UniProt Q9P035: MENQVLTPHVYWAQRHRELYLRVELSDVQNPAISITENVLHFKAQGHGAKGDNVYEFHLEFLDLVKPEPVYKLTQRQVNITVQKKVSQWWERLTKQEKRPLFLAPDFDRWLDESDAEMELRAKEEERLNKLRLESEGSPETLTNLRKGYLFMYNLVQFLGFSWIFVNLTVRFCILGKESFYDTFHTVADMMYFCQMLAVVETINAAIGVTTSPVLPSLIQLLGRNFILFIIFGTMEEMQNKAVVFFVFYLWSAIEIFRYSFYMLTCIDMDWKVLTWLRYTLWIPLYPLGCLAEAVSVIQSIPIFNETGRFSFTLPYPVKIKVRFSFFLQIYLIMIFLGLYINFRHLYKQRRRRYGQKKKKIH
UniProt Q9Y450, whole entry, looked up: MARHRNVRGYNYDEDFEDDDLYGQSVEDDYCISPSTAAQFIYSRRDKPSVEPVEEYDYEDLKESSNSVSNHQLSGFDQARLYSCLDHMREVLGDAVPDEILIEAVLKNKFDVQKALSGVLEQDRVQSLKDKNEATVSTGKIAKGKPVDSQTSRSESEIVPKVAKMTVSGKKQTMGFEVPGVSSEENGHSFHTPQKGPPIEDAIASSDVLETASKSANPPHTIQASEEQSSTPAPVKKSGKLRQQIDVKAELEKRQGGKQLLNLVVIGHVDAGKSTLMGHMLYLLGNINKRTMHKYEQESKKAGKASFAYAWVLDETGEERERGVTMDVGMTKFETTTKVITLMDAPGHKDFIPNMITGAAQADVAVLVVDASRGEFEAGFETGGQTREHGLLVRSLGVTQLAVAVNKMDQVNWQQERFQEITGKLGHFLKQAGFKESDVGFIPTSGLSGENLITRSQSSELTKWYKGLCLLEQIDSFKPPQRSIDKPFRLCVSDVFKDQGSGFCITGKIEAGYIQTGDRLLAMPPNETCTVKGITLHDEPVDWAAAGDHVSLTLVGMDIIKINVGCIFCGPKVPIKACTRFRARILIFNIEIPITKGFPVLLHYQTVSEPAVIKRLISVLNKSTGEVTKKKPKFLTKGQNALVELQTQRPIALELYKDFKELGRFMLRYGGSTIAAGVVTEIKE
UniProt P28161: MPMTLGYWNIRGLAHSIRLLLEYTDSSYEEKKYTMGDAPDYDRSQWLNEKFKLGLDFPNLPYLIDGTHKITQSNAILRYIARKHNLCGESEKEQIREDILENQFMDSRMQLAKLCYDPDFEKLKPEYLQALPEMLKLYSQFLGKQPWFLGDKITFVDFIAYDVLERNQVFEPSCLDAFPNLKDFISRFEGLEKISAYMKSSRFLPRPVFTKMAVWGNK

Key:
Experiment in all cases: log2 fold change, soluble protein after heating vs DMSO (PISA); higher = thermal stabilisation; K562 cells, 10 uM, 30 min; active = over 0.2 and 3.5 SD of the protein, either way, in both replicates (recomputed)
[1] = compound: NC(=O)Nc1cc(-c2cccc(F)c2)sc1C(=O)N[C@H]1CCCNC1
Outline: (§1)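 K562 cells at 2×10^6 cells/mL were treated for 30 min with 10 μM compound, and aliquots were heated for 3 min over 48°C-58°C before pooling. Extraction used PBS with 0.5% NP-40 at 4°C, and soluble protein was the supernatant after 21,000xg for 90 min, measured by TMTpro 16plex LC-MS/MS with channel sums equalised. Thermal stability values, relative to control samples and from duplicates, are log2 fold changes.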

[2] = compound: NC(=O)c1cnc(N[C@@H]2CCCC[C@@H]2N)nc1Nc1cccc(-n2nccn2)c1
Outline: as §1

[3] = compound: NC1(c2ccc(-c3nc4ccn5c(=O)[nH]nc5c4cc3-c3ccccc3)cc2)CCC1
Outline: as §1

[4] = compound: NCC(=O)Nc1ccc(-n2nc(C(F)(F)F)cc2-c2ccc3c(ccc4ccccc43)c2)cc1
Outline: as §1

[5] = compound: Nc1ccccc1NC(=O)c1ccc(CNC(=O)OCc2cccnc2)cc1 [entinostat]
Outline: as §1

[6] = compound: O=C(CCCCCCC(=O)Nc1ccccc1)NO [vorinostat]
Outline: as §1

[7] = compound: O=C(CCCCCCNC(=O)c1cnc(N(c2ccccc2)c2ccccc2Cl)nc1)NO [citarinostat]
Outline: as §1

[8] = compound: O=C(O)c1ccc2c(c1)nc(Nc1cccc(Cl)c1)c1ccncc12 [silmitasertib]
Outline: as §1

[9] = compound: O=C1NC(=O)C(c2cnc3ccccn23)=C1c1cn2c3c(cc(F)cc13)CN(C(=O)N1CCCCC1)CC2
Outline: as §1

[10] = compound: c1cc(OCCN2CCCCC2)cc(-c2n[nH]c3ccc(-c4nnc[nH]4)cc23)c1
Outline: as §1

[11] = compound: c1cn2cc(-c3ccc4cn[nH]c4c3)nc(Nc3ccc(N4CCOCC4)cc3)c2n1 [entospletinib]
Outline: as §1

Target	log2 fold change [1]	log2 fold change [2]	log2 fold change [3]	log2 fold change [4]	log2 fold change [5]	log2 fold change [6]	log2 fold change [7]	log2 fold change [8]	log2 fold change [9]	log2 fold change [10]	log2 fold change [11]
GSN (UniProt P06396)	inactive: 0.018	inactive: -0.024	inactive: -0.034	inactive: -0.029	inactive: -0.025	inactive: 0.125	inactive: -0.052	inactive: 0.126	inactive: -0.011	inactive: 0.104	inactive: 0.066
HDAC5 isoform 3 (UniProt Q9UQL6)	inactive: -0.148	inactive: 0.183	inactive: 0.168	–	inactive: 0.002	inactive: -0.072	inactive: -0.023	inactive: -0.028	inactive: 0	inactive: 0.012	inactive: -0.136
GYG1 (UniProt P46976)	inactive: 0.012	inactive: -0.017	inactive: 0.075	inactive: 0.134	inactive: -0.019	inactive: -0.056	inactive: -0.011	inactive: 0.049	inactive: 0.037	inactive: -0.057	active: 0.643
HAUS5 (UniProt O94927)	inactive: -0.227	inactive: -0.009	inactive: 0.317	–	inactive: -0.221	inactive: 0.015	inactive: -0.105	inactive: 0.235	–	inactive: -0.212	inactive: -0.017
GSPT1 isoform 3 (UniProt P15170)	inactive: -0.034	inactive: -0.078	inactive: -0.052	inactive: -0.068	inactive: -0.014	inactive: -0.006	inactive: -0.012	inactive: -0.024	inactive: -0.083	inactive: -0.013	inactive: 0.049
GSS (UniProt P48637)	inactive: 0.016	inactive: -0.014	inactive: 0.012	inactive: 0.014	inactive: -0.025	inactive: -0.016	inactive: 0.005	inactive: -0.018	inactive: -0.035	inactive: -0.002	inactive: -0.022
HAGHL isoform 2 (UniProt Q6PII5)	inactive: 0.082	inactive: -0.16	inactive: 0.085	inactive: 0.075	inactive: 0.026	–	–	inactive: 0.098	inactive: 0.163	–	–
GTPBP4 (UniProt Q9BZE4)	inactive: -0.057	inactive: 0.09	inactive: 0.294	inactive: -0.129	inactive: -0.063	inactive: 0.092	inactive: 0.039	inactive: 0.091	inactive: 0	inactive: -0.237	inactive: 0.172
GSTK1 (UniProt Q9Y2Q3)	inactive: -0.034	inactive: -0.011	inactive: -0.046	inactive: -0.021	inactive: 0.081	inactive: 0.002	inactive: 0.059	inactive: -0.058	inactive: -0.153	inactive: -0.01	inactive: -0.059
GTSF1 (UniProt Q8WW33)	inactive: 0.017	inactive: 0.037	inactive: 0.027	inactive: 0.061	inactive: 0.004	inactive: 0.005	inactive: 0.01	inactive: -0.047	inactive: -0.055	inactive: 0.023	inactive: -0.036
HDGF (UniProt P51858)	inactive: -0.085	inactive: -0.041	inactive: -0.056	inactive: -0.014	inactive: -0.013	inactive: 0.015	inactive: 0.073	inactive: -0.02	inactive: -0.107	inactive: 0.007	inactive: -0.012
HBG2 (UniProt P69892)	inactive: 0.119	inactive: 0.125	inactive: 0.012	inactive: 0.1	inactive: 0.094	inactive: 0.01	inactive: 0.091	inactive: -0.068	inactive: 0.008	inactive: 0.049	inactive: -0.079
GSTM5 (UniProt P46439)	inactive: 0.257	inactive: -0.034	inactive: 0.124	inactive: -0.008	inactive: 0.152	inactive: -0.06	–	inactive: 0.1	inactive: 0.123	–	–
HEPH isoform 3 (UniProt Q9BQS7)	inactive: -0.03	inactive: 0.022	inactive: -0.1	inactive: 0.044	inactive: -0.011	inactive: 0.033	inactive: 0.112	inactive: 0.118	inactive: 0.04	inactive: -0.109	inactive: 0.026
HDHD5 (UniProt Q9BXW7)	inactive: 0.06	inactive: -0.095	inactive: -0.113	inactive: -0.031	inactive: 0.095	inactive: 0.08	inactive: 0.158	inactive: -0.144	inactive: -0.023	inactive: 0.083	inactive: -0.047
GTPBP10 (UniProt A4D1E9)	inactive: 0.013	inactive: -0.107	inactive: 0.066	inactive: 0.046	inactive: 0.038	inactive: -0.015	inactive: -0.032	inactive: -0.018	inactive: -0.041	inactive: -0.152	inactive: -0.04
GSTM3 (UniProt P21266)	inactive: 0.202	inactive: 0.072	inactive: -0.017	inactive: -0.066	inactive: 0.076	inactive: 0.11	inactive: 0.12	inactive: 0.015	inactive: -0.056	inactive: -0.009	inactive: -0.059
HBG1 (UniProt P69891)	inactive: 0.008	inactive: 0.013	inactive: 0.036	inactive: 0.027	inactive: 0.076	inactive: -0.044	inactive: 0.023	inactive: -0.024	inactive: -0.065	inactive: -0.002	inactive: -0.033
HARS (UniProt P12081)	inactive: 0.018	inactive: 0.01	inactive: -0.006	inactive: 0.028	inactive: -0.034	inactive: -0.005	inactive: -0.001	inactive: -0.018	inactive: -0.019	inactive: -0.019	inactive: -0.019
HCLS1 (UniProt P14317)	inactive: 0.035	inactive: -0.015	inactive: -0.006	inactive: 0.043	inactive: -0.015	inactive: -0.058	inactive: -0.065	inactive: 0.006	inactive: -0.047	inactive: 0.023	inactive: 0.028
HBE1 (UniProt P02100)	inactive: -0.024	inactive: -0.017	inactive: 0.043	inactive: 0.012	inactive: 0.059	inactive: -0.113	inactive: 0.002	inactive: -0.027	inactive: -0.043	inactive: -0.01	inactive: 0.038
GTPBP2 (UniProt Q9BX10)	inactive: 0.027	inactive: 0.012	inactive: -0.047	inactive: -0.072	inactive: 0.093	inactive: 0.17	inactive: -0.025	inactive: 0.025	inactive: 0.071	inactive: -0.022	inactive: 0.008
HAL (UniProt P42357)	inactive: 0.132	inactive: 0.32	inactive: 0.204	inactive: 0.059	inactive: 0.283	–	inactive: -0.446	inactive: -0.087	inactive: -0.136	inactive: 1.42	inactive: -0.102
HDAC3 isoform 2 (UniProt O15379)	inactive: 0.026	inactive: 0.019	inactive: -0.037	inactive: -0.009	–	inactive: -0.026	inactive: 0.079	inactive: -0.031	inactive: -0.006	inactive: -0.093	inactive: -0.057
HACD3 (UniProt Q9P035)	inactive: 0.037	inactive: -0.07	inactive: -0.079	inactive: -0.04	inactive: 0.008	inactive: -0.018	inactive: 0.064	inactive: -0.023	inactive: -0.021	inactive: -0.07	inactive: 0.005
HECTD3 (UniProt Q5T447)	inactive: -0.064	inactive: -0.015	inactive: -0.066	inactive: -0.014	inactive: 0.024	–	inactive: -0.025	inactive: 0.03	inactive: 0.087	inactive: -0.054	inactive: 0.15
HBS1L isoform 2 (UniProt Q9Y450)	inactive: -0.082	inactive: -0.023	inactive: -0.175	inactive: -0.204	inactive: 0.063	inactive: 0.069	inactive: 0.177	inactive: 0.02	inactive: 0.043	inactive: -0.017	inactive: -0.056
GSTM2 (UniProt P28161)	inactive: -0.014	inactive: 0.01	inactive: 0.002	inactive: 0.039	inactive: -0.008	inactive: -0.028	inactive: -0.015	inactive: -0.024	inactive: -0.047	inactive: 0.07	inactive: 0.074
HAGH (UniProt Q16775)	inactive: -0.009	inactive: 0.002	inactive: -0.016	inactive: 0.011	inactive: -0.081	inactive: -0.047	inactive: 0.019	inactive: -0.06	inactive: 0.009	inactive: -0.05	inactive: 0.018

Nothing new here: an excerpt of the list.
Target	log2 fold change [1]	log2 fold change [2]	log2 fold change [3]	log2 fold change [4]	log2 fold change [5]	log2 fold change [6]	log2 fold change [7]	log2 fold change [8]	log2 fold change [9]	log2 fold change [10]	log2 fold change [11]
HDHD5 (UniProt Q9BXW7)	inactive: 0.06	inactive: -0.095	inactive: -0.113	inactive: -0.031	inactive: 0.095	inactive: 0.08	inactive: 0.158	inactive: -0.144	inactive: -0.023	inactive: 0.083	inactive: -0.047
GTPBP10 (UniProt A4D1E9)	inactive: 0.013	inactive: -0.107	inactive: 0.066	inactive: 0.046	inactive: 0.038	inactive: -0.015	inactive: -0.032	inactive: -0.018	inactive: -0.041	inactive: -0.152	inactive: -0.04
